The results in this text go back to paper PMC10008730.

Sequences of proteins named here, by UniProt entry; tags and fusion partners are left off.
UniProt P26038: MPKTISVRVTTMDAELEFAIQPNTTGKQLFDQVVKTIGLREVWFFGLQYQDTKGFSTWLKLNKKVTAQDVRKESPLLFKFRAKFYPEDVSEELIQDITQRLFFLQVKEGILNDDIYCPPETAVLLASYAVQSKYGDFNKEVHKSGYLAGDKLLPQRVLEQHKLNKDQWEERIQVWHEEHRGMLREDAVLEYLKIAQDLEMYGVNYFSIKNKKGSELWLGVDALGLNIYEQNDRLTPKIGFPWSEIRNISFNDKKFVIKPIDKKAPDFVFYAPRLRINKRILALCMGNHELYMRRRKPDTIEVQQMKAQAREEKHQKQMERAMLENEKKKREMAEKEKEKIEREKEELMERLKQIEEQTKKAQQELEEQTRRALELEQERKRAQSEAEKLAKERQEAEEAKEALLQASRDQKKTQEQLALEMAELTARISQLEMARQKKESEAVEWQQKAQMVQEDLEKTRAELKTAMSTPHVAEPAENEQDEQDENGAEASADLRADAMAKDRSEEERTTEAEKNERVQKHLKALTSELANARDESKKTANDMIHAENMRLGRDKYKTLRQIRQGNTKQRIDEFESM
UniProt P06733: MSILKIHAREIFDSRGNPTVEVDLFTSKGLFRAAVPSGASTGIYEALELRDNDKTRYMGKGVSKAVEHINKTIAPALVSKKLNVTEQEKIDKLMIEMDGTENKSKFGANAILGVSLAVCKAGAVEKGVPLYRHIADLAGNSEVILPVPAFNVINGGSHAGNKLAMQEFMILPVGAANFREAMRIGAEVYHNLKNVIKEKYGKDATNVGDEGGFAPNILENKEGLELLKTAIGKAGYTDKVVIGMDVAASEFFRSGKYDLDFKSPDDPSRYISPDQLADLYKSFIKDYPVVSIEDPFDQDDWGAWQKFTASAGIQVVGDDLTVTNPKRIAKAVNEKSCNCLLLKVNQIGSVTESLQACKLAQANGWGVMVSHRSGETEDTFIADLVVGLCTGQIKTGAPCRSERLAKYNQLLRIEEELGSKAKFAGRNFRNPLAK

Experiment [1] has as its target Moesin (MSN) (human (endogenous in MDA-MB-231)) (UniProt P26038). As to the kind of experiment: affinity purification with mass spectrometry; MDA-MB-231 protein samples immunoprecipitated with ENO1 and MSN; global proteomics, at least 2 MS/MS counts with one or more unique peptides.
Experiment [2] concerns the target Enolase 1 (ENO1) (human (endogenous in MDA-MB-231)) (UniProt P06733). The description is as above.

No constants are given. Whether binding was seen depends on the method and setting. Binding seen in cells or lysates may run through a third protein. A yes stands for co-enrichment or nearness to the bait. Other partners may have been found.

B1: Metadherin (Mtdh) (protein, UniProt Q86UE4 1-582)
chain: MAARSWQDELAQQAEEGSARLREMLSVGLGFLRTELGLDLGLEPKRYPGWVILVGTGALGLLLLFLLGYGWAAACAGARKKRRSPPRKREEAAAVPAAAPDDLALLKNLRSEEQKKKNRKKLSEKPKPNGRTVEVAEGEAVRTPQSVTAKQPPEIDKKNEKSKKNKKKSKSDAKAVQNSSRHDGKEVDEGAWETKISHREKRQQRKRDKVLTDSGSLDSTIPGIENTITVTTEQLTTASFPVGSKKNKGDSHLNVQVSNFKSGKGDSTLQVSSGLNENLTVNGGGWNEKSVKLSSQISAGEEKWNSVSPASAGKRKTEPSAWSQDTGDANTNGKDWGRSWSDRSIFSGIGSTAEPVSQSTTSDYQWDVSRNQPYIDDEWSGLNGLSSADPNSDWNAPAEEWGNWVDEERASLLKSQEPIPDDQKVSDDDKEKGEGALPTGKSKKKKKKKKKQGEDNSTAQDTEELEKEIREDLPVNTSKTRPKQEKAFSLKTISTSDPAEVLVKNSQPIKTLPPATSTEPSVILSKSDSDKSSSQVPPILQETDKSKSNTKQNSVPPSQTKSETSWESPKQIKKKKKARRET
Take B1: the binding result in experiment [1] and in experiment [2] was “binds” in each case.
